Results taken from publication doi:10.1101/2022.12.16.520769.
Results are given in words; binding and its absence hold for the method and conditions named. In cells and extracts the contact can be indirect. Some results given as binding are weak or reduced against the parent protein; the word gives no strength. Tags and fused reporters may be left off the sequences shown. One block for each binder: values may come before it.

What was measured:
Experiment in all cases: co-IP
Myc-FLAG-RBP5 (human) = target: T1, Myc-FLAG-RBP5 (human) (UniProt P82980)
T1 sequence: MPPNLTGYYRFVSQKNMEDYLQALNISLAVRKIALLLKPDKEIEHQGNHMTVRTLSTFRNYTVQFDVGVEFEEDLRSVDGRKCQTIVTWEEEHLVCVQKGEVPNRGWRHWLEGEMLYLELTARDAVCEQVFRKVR

Myc-FLAG-MBNL3 (human) = target: T2, Myc-FLAG-MBNL3 (human) (UniProt Q9NUK0)
T2 sequence: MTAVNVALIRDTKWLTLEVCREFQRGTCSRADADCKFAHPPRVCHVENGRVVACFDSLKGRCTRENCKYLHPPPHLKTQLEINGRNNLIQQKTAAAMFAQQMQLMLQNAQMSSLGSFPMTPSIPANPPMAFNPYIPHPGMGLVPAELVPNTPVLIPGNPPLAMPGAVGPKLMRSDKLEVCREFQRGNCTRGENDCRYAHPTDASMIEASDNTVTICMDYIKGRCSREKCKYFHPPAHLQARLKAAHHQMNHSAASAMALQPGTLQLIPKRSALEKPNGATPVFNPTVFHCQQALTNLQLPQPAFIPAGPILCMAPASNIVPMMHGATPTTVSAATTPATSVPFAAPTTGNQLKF

His-PGRP3 (human) = target: T3, His-PGRP3 (human) (UniProt Q96LB9)
T3 sequence: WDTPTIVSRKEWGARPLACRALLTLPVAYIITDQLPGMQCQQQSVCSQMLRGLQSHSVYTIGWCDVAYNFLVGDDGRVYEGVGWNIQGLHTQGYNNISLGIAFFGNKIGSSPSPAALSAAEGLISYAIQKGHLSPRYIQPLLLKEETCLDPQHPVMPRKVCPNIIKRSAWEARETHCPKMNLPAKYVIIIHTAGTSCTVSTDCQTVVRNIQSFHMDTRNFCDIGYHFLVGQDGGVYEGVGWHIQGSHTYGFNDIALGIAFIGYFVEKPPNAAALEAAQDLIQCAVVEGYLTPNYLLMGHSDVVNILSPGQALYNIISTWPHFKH

- binding (Myc-FLAG-RBP5 (human)): binds
- binding (Myc-FLAG-MBNL3 (human)): binds
B1: His-PGRP3 (protein, UniProt Q96LB9 18-341)
chain: T3 sequence

- binding (His-PGRP3 (human)): binds
B2: Myc-FLAG-MBNL3 (protein, UniProt Q9NUK0 1-354)
chain: T2 sequence

- binding (His-PGRP3 (human)): binds
B3: Myc-FLAG-RBP5 (protein, UniProt P82980 1-135)
chain: T1 sequence
